The whole screen tested about 400,000 compounds, of which about 13,000 (3.2%) were called active. The shares of active, inactive and inconclusive entries below differ from those in the screen. Calls follow the shape of the dose curve; as a rule, active = well fitted cell-killing curve with a large enough effect; inconclusive = small, poorly fitted or top-dose-only effect, or effect the other way; inactive = flat fitted curve, though single readings scatter. Potencies of inconclusive entries are doubtful fits and often do not repeat.
Test: qHTS assay for MDR1-selective chemotherapeutics: Primary screen using the drug-selected MDR subline cells KB-V1; also: nearly all actives have a fitted effect of over 60% in size
Settings: KB-V1 MDR cells viability, CellTiter-Glo, 72 h; activity change, negative = cytotoxicity: at 46.1 µM (top of the series)
In short: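 Potencies derive from concentration-effect curves fitted to normalized luminescence (CellTiter-Glo) of KB-V1 cells treated for 72 h at 37 degrees C in phenol-red-free DMEM containing 10% FBS.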
% is scaled to controls: 0 for no effect and ±100 for the full control effect; potency is read from the fitted curve at half-maximal effect.

| Structure (SMILES) | Potency | activity change, negative = cytotoxicity |
| --- | --- | --- |
| Cc1ccc(N2CC(C(=O)Nc3ccc(Br)cc3)CC2=O)cc1 (configuration not stated) | inconclusive: 11.6 µM [rising, single point] |  |
| COc1cccc(N2CCN(C(=O)c3cc(C)oc3C)CC2)c1 | active: 14.6 µM |  |
| CC1CCCCC1NC(=O)CN1CCN(S(=O)(=O)c2ccc(Br)s2)CC1 (configuration not stated) | active: 9.2 µM |  |
| Cc1nc(NCc2ccccc2)sc1C(=O)Nc1ccccc1 | inconclusive: 9.2 µM [cytotoxic, partial curve] |  |
| COc1ccc(N2CCN(C(=O)c3ccc4c(c3)CC(c3ccccc3)OC4=O)CC2)cc1 (configuration not stated) | inconclusive: 16.4 µM [cytotoxic, partial curve, poor fit] |  |
| CC(=O)c1ccc(N=Cc2c(O)n(-c3cc(Cl)ccc3N3CCOCC3)c(=O)c3ccccc23)cc1 |  | inactive: -8.72% |
| CCNC(=S)N(CCc1c(C)[nH]c2ccc(C)cc12)Cc1cccs1 | inconclusive: 16.4 µM [cytotoxic, single point] |  |
| Cc1ccc(CNC(=O)CNS(=O)(=O)c2ccc3nc(C)sc3c2)cc1 |  | inactive: 20.6% |
| Cc1nn(-c2ccccc2)c(C)c1C(=O)OC(C)C(=O)NC1CCCCC1C (configuration not stated) | inconclusive: 7.31 µM [cytotoxic, partial curve] |  |
| COc1cccc(C(=O)OCCNC(=O)c2cccnc2)c1 | inconclusive: 9.2 µM [rising, partial curve, poor fit] |  |
| C/C(=N\NC(=O)C1CCCN(S(=O)(=O)c2ccccc2)C1)c1ccccn1 (configuration not stated) | inconclusive: 2.06 µM [cytotoxic, full curve] |  |
| Cc1cc2c(N3CCCCC3C)ncnc2s1 (configuration not stated) | inconclusive: 29.1 µM [cytotoxic, single point] |  |
| CC(C)Cn1c2c(c(O)c(C(=O)Nn3c(Cc4ccccc4)nc4ccccc4c3=O)c1=O)CCCC2 | inconclusive: 25.9 µM [cytotoxic, partial curve, poor fit] |  |
| CC(C)C(NC(=O)c1cccs1)c1nnc(SCC(=O)Nc2nccs2)n1C (configuration not stated) |  | inactive: 0.749% |
| CC(O)(c1ccccc1)C(C(c1ccccc1)N1CCOCC1)N1CCOCC1 (configuration not stated) | inconclusive: 0.0058 µM [rising, full curve, poor fit] |  |
| CCOc1ccc(CCN2C(=O)C(=O)N([C@@H](Cc3ccccc3)CN3CCC[C@H]3CN3C(=O)C(=O)NC[C@@H]3Cc3ccc(O)cc3)C[C@@H]2CC(C)C)cc1 |  | inactive: -1.07% |
| CN(C)c1ccc(N/C=C/C(=O)c2ccccc2)cc1 | inconclusive: 10 µM [cytotoxic, single point] |  |
| Cc1ccc(-c2nc(SCC(=O)NCC3CCCO3)c(-c3ccccc3)[nH]2)cc1 (configuration not stated) | inconclusive: 29.1 µM [cytotoxic, single point] |  |
| Cc1ccc(S(=O)(=O)N2CCC(C(=O)NCc3ccccc3CN3CCCC3)CC2)cc1 | inconclusive: 29.1 µM [cytotoxic, single point] |  |
| COc1ccc(-c2nc(C(=O)NCC3CCCO3)cc3c2[nH]c2ccccc23)cc1 (configuration not stated) | inconclusive: 29.1 µM [cytotoxic, single point] |  |
| COc1ccc(C(=O)n2nc(-c3ccco3)nc2NCc2cccs2)cc1 | inconclusive: 7.31 µM [rising, partial curve, poor fit] |  |
| CCN(C(=O)COC(=O)c1ccc(S(=O)(=O)N2CCCc3ccccc32)cc1)C1CCS(=O)(=O)C1 (configuration not stated) | inconclusive: 29.1 µM [cytotoxic, single point] |  |
| CC(=O)c1cccc(-c2ccc3c(=O)[nH]c(Nc4ccccc4)cc3c2)c1 | inconclusive: 14.6 µM [rising, partial curve] |  |

Four entries from above, ordered by number of heavy atoms, smallest number first:

| Structure (SMILES) | Potency | activity change, negative = cytotoxicity |
| --- | --- | --- |
| Cc1ccc(N2CC(C(=O)Nc3ccc(Br)cc3)CC2=O)cc1 (configuration not stated) | inconclusive: 11.6 µM [rising, single point] |  |
| CC1CCCCC1NC(=O)CN1CCN(S(=O)(=O)c2ccc(Br)s2)CC1 (configuration not stated) | active: 9.2 µM |  |
| COc1ccc(C(=O)n2nc(-c3ccco3)nc2NCc2cccs2)cc1 | inconclusive: 7.31 µM [rising, partial curve, poor fit] |  |
| Cc1ccc(S(=O)(=O)N2CCC(C(=O)NCc3ccccc3CN3CCCC3)CC2)cc1 | inconclusive: 29.1 µM [cytotoxic, single point] |  |

Carrying on:

| Structure (SMILES) | Potency | activity change, negative = cytotoxicity |
| --- | --- | --- |
| COc1ccc(Cl)cc1NC(=O)CN(C)CC(=O)Nc1ccccc1N1CCOCC1 | inconclusive: 0.461 µM [cytotoxic, full curve, poor fit] |  |
| COc1ccccc1CNS(=O)(=O)c1cc2c3c(c1)CCN3C(=O)CC2 | inconclusive: 20.6 µM [cytotoxic, single point] |  |
| CC(=C1SC(=S)NC1=O)c1ccccc1 | inconclusive: 16.4 µM [cytotoxic, single point] |  |
| O=C(NCCC(=O)N1CCC2(CC1)NCCc1[nH]cnc12)c1ccc(F)c(F)c1 | inconclusive: 11.6 µM [rising, partial curve, poor fit] |  |
| Cc1cccc(NC(=O)/C=C/c2ccc(Cl)cc2)n1 | active: 16.4 µM |  |
| CCn1ccnc1CN1CCCC(CO)(Cc2cccc(OC)c2)C1 (configuration not stated) | inconclusive: 14.6 µM [cytotoxic, single point] |  |
| Cc1ccc(C(=O)C[n+]2cc(Br)cc(Br)c2)cc1 | inconclusive: 18.4 µM [rising, single point] |  |
| CCn1c(NC(=O)c2nn(C)cc2Br)nc2ccccc21 | inconclusive: 23.1 µM [cytotoxic, partial curve, poor fit] |  |
| COc1cccc(COc2ccccc2C2Nc3ccc(Br)cc3C(=O)N2NC(=O)c2ccncc2)c1 (configuration not stated) | active: 8.2 µM |  |
| COc1ccccc1C(=O)NCCn1cc(SCc2ccccc2Cl)c2ccccc21 | inconclusive: 29.1 µM [cytotoxic, single point] |  |
| Cc1ccc(N(CC(=O)NCC2CCCO2)C(=O)CCC(=O)Nc2cc(C)on2)cc1 (configuration not stated) |  | inactive: 1.68% |
| CCOC(=O)c1nn(-c2ccc(Cl)cc2)c2nc(CC)c(C#N)c(=O)n12 | inconclusive: 20.6 µM [cytotoxic, single point] |  |
| CC(C)CC(=O)N1CCN(c2ccc([N+](=O)[O-])c(NCc3ccccc3)c2)CC1 | inconclusive: 25.9 µM [cytotoxic, partial curve, poor fit] |  |
| CC(=O)Nc1ccc(NC(=O)C(C)OC(=O)C2(c3ccc(F)cc3)CCCC2)cc1 (configuration not stated) | inconclusive: 18.4 µM [cytotoxic, single point] |  |
| CCCCN1C(=O)C(CC(=O)NCCN2CCOCC2)CC(C(=O)N(CC)CC)=C1C (configuration not stated) |  | inactive: -13.9% |
| O=C(CCS(=O)(=O)Cc1ccccc1)Nc1nc2c(s1)CCCC2 | inconclusive: 29.1 µM [cytotoxic, single point] |  |
| CCOc1ccc(/C=N/NC(=O)c2ccccc2O)cc1CN1CC2CC(C1)c1cccc(=O)n1C2 (configuration not stated) | inconclusive: 16.4 µM [cytotoxic, single point] |  |
| COC(=O)CNC(c1ccccc1)c1cc(Cl)ccc1NC(=O)c1cccc(Cl)c1 (configuration not stated) | active: 5.17 µM |  |
| C=CCn1c2ccccc2c(=O)c2cc(C#Cc3cc(OC)cc(OC)c3)ccc21 |  | inactive: -8.49% |
| Cc1cc(C)c(S(=O)(=O)/N=C2/C=C(Sc3ncn[nH]3)C(=O)c3ccccc32)cc1C | inconclusive: 29.1 µM [cytotoxic, single point] |  |
| C=CCn1c(CCCNC(=O)C(C)(C)C)nc2ccccc21 |  | inactive: 0% |
| Cc1ccc(-c2nnc3n2CCCCC3)cc1 |  | inactive: -7.67% |
| CC1CN(S(=O)(=O)c2cccc(-c3cn4ccccc4n3)c2)CC(C)O1 (configuration not stated) | inconclusive: 29.1 µM [cytotoxic, single point] |  |

| Structure (SMILES) | Potency | activity change, negative = cytotoxicity |
| --- | --- | --- |
| CCCCn1c(N)c(N(CC(C)C)C(=O)CCCc2nc3ccccc3s2)c(=O)[nH]c1=O | inconclusive: 3.66 µM [rising, partial curve] |  |
| Cc1cccc(NC(=O)c2ccc(N3C(=O)C4C5C=CC(C6CC56)C4C3=O)cc2)c1 (configuration not stated) |  | inactive: 2.78% |
| CC(=O)Nc1ccc(S(=O)(=O)N2CC3(C)CC2CC(C)(C)C3)cc1 (configuration not stated) |  | inactive: -9.71% |
| COc1ccccc1C(=O)NCCC(=O)Nc1ccc(OC(F)(F)F)cc1 |  | inactive: -17.8% |
| COc1ccc(Cn2c(C(=O)O)c(CNC3CCCCCC3)c3ccc(OC)cc32)cc1 | inconclusive: 3.26 µM [rising, full curve] |  |
| CN1C(=O)C(C)(C)c2cc(S(=O)(=O)N3CCCC(C(=O)Nc4ccc(Cl)cc4)C3)ccc21 (configuration not stated) | inconclusive: 20.6 µM [cytotoxic, partial curve, poor fit] |  |
| Oc1ccc(Br)cc1-c1n[nH]c(=S)n1Cc1ccccc1 |  | inactive: -1.3% |
| Cc1ccc(NC(=O)CN(C)C(=O)CSc2nc3ccccc3c(=O)n2CCO)cc1 | inconclusive: 18.4 µM [rising, single point] |  |
| Cn1cc(/C=C/c2nc3ccccc3c(=O)n2-c2cccc([N+](=O)[O-])c2)c2ccccc21 | inconclusive: 23.1 µM [cytotoxic, single point] |  |
| Cc1nnc(SCc2ccc(Cl)cc2Cl)[nH]c1=O | inconclusive: 16.4 µM [rising, single point] |  |
| O=C1Nc2c(Cl)cccc2C1=O |  | inactive: 0% |
| CC(C)(C)c1csc(NC(=O)C2COc3ccccc3O2)n1 (configuration not stated) | inconclusive: 18.4 µM [cytotoxic, single point] |  |
| COc1ccc(CN2CCN(Cc3ccc(C)cc3)C(CCO)C2)cc1OC (configuration not stated) |  | inactive: -6.24% |
| O=C(COC(=O)c1cnccn1)NCc1ccc(Cl)cc1 | inconclusive: 14.6 µM [rising, partial curve] |  |
| O=[N+]([O-])c1cc(CN2CCCC2)ccc1Sc1ccc(Cl)cc1 | inconclusive: 18.4 µM [cytotoxic, single point] |  |
| NC(=NC(=O)c1ccc(OCC(F)(F)F)nc1)c1ccccc1 |  | inactive: 20.8% |
| O=C(COC(=O)C12CC3CC(CC(O)(C3)C1)C2)NCCc1ccc(Cl)cc1 | inconclusive: 16.4 µM [cytotoxic, single point] |  |
| COc1ccc(C(=O)N2CCc3cc(OC)c(OC)cc3C2COc2ccc3c(C)cc(=O)oc3c2)c(OC)c1 (configuration not stated) |  | inactive: 24.9% |
| Cc1ccc(OCCC(=O)OCC(=O)NC(=O)NC2CCCC2)cc1 |  | inactive: -0.273% |
| CCOc1ccc(S(=O)(=O)NCCC(=O)N2CCN(Cc3ccccc3)CC2)cc1 | inconclusive: 10.3 µM [cytotoxic, partial curve] |  |
| CCN(CC)C(=O)C1=C(C)N(Cc2ccc(C(C)(C)C)cc2)C(=O)C(CC(=O)NCCc2ccccn2)C1 (configuration not stated) | inconclusive: 20.6 µM [cytotoxic, single point] |  |
